From US7211246B2, “Compositions comprising oestrone-3-0-sulphamate and trail (TNF-related apoptosis inducing ligand)” (Sterix Limited, priority 2001, dated 2007)
Some entries share one result that the patent states for a list of compounds.

System: CAL51 cells
Assay: Cell Titre 96 Aqueous One Solution cell proliferation assay, CAL51 cells
Assay type: cell-based
Conditions: compound alone, 0.05-5 μM, over 2 days
Experimental: FIGS. 1A to 1C show effects of 2-MeOEMATE and 2-EtEMATE on TRAIL induced apoptosis in CAL51 and MCF-7 cells. Cell proliferation assays in which CAL51 cells or MCF7 cells were plated at a density of 5,000 in 96 well plates and treated with 0, 0.05, 0.5 or 5 μM MeoEMATE or 2-EtEMATE in the presence of 0, 50 or 250 ng/ml recombinant human TRAIL. Results are the mean of triplicates+/−S.D. and are expressed as a percentage of results for untreated cells.
Cell proliferation was measured using the Cell Titre 96 Aqueous One Solution Cell proliferation assay (Promega). This is a colorimetric method which determines cell viability and can therefore be used to measure the ability of drugs to cause cell death. The assay is performed by adding the cell proliferation reagent directly to the cells. Metabolically active cells convert the reagent to a coloured formazan product and the absorbance at 490 nm is measured 1–4 hrs after incubation at 37° C.
For the TRAIL co-operation experiments, CAL-51 of MCF-7 cells were plated at 5,000 cells per well in 96 well plates. […] Cell proliferation was measured 2 days (CAL-51) or 1 day (MCF-7) after addition of drugs. Tests were performed in triplicate and data are means of triplicate results+/−S.D. and are expressed as a percentage of results obtained for untreated cells. […]

`COc1cc2c(cc1OS(N)(=O)=O)CCC1C2CCC2(C)C(=O)CCC12` (stereo not shown) [2-MeOEMATE, 2-methoxyoestrone-3-O-sulphamate] was tested, and the cell death was “up to 60%”.
